# Screening data

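Mouse JNK3 activity from prestimulated HepG2 lysate, measured as phospho-c-Jun AlphaScreen signal after two hours of kinase reaction plus three hours detection. Each compound ran as a dilution series from about 0.6 nM up to 57.1 µM. Fitted AC50 for either an inhibiting or an activating curve; a lower value means greater potency. Calls come from the fitted dose curve (inhibitor, activator, inactive or inconclusive); every row here is inconclusive, including some full curves, so the exact cut-off is unclear.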

Values are in µM. Every entry below has the call inconclusive. These entries are mostly ones the record files as inconclusive; other results of the assay are not listed here. A potency from a partial, single-point or poor curve is only a rough figure. Some entries filed as inconclusive have a full curve. The first word of each remark tells which way the curve ran; it can be opposite to the aim of the assay.

- CC(C)C[C@@H](CC(=O)N[C@@H](CCCN)CC(=O)N[C@@H]1CCNC[C@H]1C(=O)N[C@H](CC(=O)N[C@@H](CCC(=O)O)CC(=O)O)Cc1c[nH]c2ccccc12)NC(=O)[C@@H]1CNCC[C@H]1N | potency 3.981 µM (inhibitor, full curve, poor fit)
- C[C@@](Cc1ccc(O)c(O)c1)(NN)C(=O)O | potency 39.81 µM (inhibitor, single point)
- O=C(O)c1cccc(N=Nc2c(S(=O)(=O)O)ccc3c2C(=O)c2ccccc2C3=O)c1O | potency 3.981 µM (inhibitor, partial curve)
- Cn1cccc1C(=O)N1CCC[C@@]2(CCN(c3cccc(-c4ccccc4)c3)C2)C1 | potency 15.85 µM (inhibitor, partial curve)
- NC[C@H](CS(=O)(=O)O)c1ccc(Cl)cc1 | potency 0.00631 µM (activator, full curve, poor fit)
- CN(C)c1ncc2nc(-c3cccs3)c(=O)n(C)c2n1 | potency 0.7943 µM (activator, full curve, poor fit)
- c1ccc(CN2CCC3(CCc4ccccc43)CC2)cc1 | potency 0.1259 µM (activator, full curve, poor fit)
- COc1ccc2c(c1)c(CC(=O)O)c(C)n2Cc1ccc(Cl)cc1 | potency 12.59 µM (inhibitor, partial curve, poor fit)
- O=C(CCc1ccc(O)cc1)c1c(O)cc(O)cc1O | potency 39.81 µM (inhibitor, partial curve)
- COc1ccc([C@@H](C)c2cc3c(cc2O)OCO3)cc1 | potency 5.012 µM (inhibitor, single point)
- C[N+]1(CCCCC[N+]2(C)CCCC2)CCCC1 | potency 39.81 µM (activator, single point)
- COCCOC(=O)C1=C(C)NC(C)=C(C(=O)OC(C)C)[C@@H]1c1cccc([N+](=O)[O-])c1 | potency 39.81 µM (activator, single point)
- COc1ccc(-c2coc3ccc(O[C@@H]4O[C@@H](COC(C)=O)[C@@H](OC(C)=O)[C@@H](OC(C)=O)[C@H]4OC(C)=O)c(OC(C)=O)c3c2=O)cc1 | potency 0.02512 µM (activator, full curve)
- CN1CCC[C@@H]1CCO[C@](C)(c1ccccc1)c1ccc(Cl)cc1 | potency 39.81 µM (activator, single point)
- Cn1cccc1C(=O)N1CCC2(CCCN(c3cccc(-c4ccccc4)c3)C2)CC1 | potency 19.95 µM (inhibitor, single point)
- OC[C@@H]1O[C@@H](n2cnc3c(N[C@@H]4C[C@@H]5CC[C@H]4C5)ncnc32)[C@@H](O)[C@H]1O | potency 31.62 µM (activator, partial curve, poor fit)
- CC(C)C[C@@H](CC(=O)N[C@@H](CCCN)CC(=O)N[C@@H]1CCCC[C@H]1C(=O)N[C@H](CC(=O)N[C@@H](CCC(=O)O)CC(=O)O)CC(C)C)NC(=O)[C@@H]1CCCC[C@H]1N | potency 15.85 µM (inhibitor, partial curve, poor fit)
- c1ccc2cc3c(cc2c1)-c1cccc2cccc-3c12 | potency 1.585 µM (activator, full curve)
- O=C(c1ccncc1)N1CCC2(CC1)CN(c1cccc(-c3ccccc3)c1)C2 | potency 15.85 µM (inhibitor, single point)
- Cc1nc(N=Nc2ccc(S(=O)(=O)O)cc2S(=O)(=O)O)c(COP(=O)(O)O)c(C=O)c1O | potency 31.62 µM (activator, partial curve, poor fit)
- O=c1c(-c2ccc(Cl)cc2)nc2cnc(N3CCNCC3)nc2n1CCc1ccccc1 | potency 25.12 µM (activator, partial curve)
- C[C@H](N)Cc1cnc[nH]1 | potency 0.007943 µM (activator, full curve, poor fit)

Source: PubChem BioAssay AID530 (NCATS, 2006).